This assay addresses T1, FLAG-TurboID-LUZP1 (human) (UniProt Q86V48).
T1 sequence: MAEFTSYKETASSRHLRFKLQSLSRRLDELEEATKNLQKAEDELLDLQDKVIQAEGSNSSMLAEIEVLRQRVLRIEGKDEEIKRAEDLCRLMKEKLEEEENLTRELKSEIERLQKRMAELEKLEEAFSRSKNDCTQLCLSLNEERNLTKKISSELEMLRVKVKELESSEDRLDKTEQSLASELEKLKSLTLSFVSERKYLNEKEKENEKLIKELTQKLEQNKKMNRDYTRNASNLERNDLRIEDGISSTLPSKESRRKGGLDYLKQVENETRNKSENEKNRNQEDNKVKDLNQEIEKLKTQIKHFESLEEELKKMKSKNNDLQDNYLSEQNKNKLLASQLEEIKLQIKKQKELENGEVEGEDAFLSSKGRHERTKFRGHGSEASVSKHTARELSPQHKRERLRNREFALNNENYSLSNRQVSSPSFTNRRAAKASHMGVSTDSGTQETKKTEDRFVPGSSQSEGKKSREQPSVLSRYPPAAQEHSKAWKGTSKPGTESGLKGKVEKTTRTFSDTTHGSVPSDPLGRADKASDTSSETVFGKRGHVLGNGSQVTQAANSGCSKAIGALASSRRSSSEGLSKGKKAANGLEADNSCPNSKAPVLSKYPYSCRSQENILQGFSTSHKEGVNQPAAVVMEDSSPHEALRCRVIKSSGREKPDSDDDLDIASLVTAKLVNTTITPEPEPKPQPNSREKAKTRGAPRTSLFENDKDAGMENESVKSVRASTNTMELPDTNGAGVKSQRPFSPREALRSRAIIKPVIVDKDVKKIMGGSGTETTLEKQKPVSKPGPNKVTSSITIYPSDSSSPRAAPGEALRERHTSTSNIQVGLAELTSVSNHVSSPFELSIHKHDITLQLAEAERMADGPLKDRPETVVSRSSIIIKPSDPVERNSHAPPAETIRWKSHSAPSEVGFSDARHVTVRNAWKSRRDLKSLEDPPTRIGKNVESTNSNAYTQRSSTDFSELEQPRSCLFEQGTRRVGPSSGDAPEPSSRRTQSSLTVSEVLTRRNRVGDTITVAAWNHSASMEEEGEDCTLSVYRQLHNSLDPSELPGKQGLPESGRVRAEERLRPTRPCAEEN
The assay is described as follows: proximity labelling.

Protein sequences, listed by entry. Tags and fused reporters are not part of them.
UniProt P21333: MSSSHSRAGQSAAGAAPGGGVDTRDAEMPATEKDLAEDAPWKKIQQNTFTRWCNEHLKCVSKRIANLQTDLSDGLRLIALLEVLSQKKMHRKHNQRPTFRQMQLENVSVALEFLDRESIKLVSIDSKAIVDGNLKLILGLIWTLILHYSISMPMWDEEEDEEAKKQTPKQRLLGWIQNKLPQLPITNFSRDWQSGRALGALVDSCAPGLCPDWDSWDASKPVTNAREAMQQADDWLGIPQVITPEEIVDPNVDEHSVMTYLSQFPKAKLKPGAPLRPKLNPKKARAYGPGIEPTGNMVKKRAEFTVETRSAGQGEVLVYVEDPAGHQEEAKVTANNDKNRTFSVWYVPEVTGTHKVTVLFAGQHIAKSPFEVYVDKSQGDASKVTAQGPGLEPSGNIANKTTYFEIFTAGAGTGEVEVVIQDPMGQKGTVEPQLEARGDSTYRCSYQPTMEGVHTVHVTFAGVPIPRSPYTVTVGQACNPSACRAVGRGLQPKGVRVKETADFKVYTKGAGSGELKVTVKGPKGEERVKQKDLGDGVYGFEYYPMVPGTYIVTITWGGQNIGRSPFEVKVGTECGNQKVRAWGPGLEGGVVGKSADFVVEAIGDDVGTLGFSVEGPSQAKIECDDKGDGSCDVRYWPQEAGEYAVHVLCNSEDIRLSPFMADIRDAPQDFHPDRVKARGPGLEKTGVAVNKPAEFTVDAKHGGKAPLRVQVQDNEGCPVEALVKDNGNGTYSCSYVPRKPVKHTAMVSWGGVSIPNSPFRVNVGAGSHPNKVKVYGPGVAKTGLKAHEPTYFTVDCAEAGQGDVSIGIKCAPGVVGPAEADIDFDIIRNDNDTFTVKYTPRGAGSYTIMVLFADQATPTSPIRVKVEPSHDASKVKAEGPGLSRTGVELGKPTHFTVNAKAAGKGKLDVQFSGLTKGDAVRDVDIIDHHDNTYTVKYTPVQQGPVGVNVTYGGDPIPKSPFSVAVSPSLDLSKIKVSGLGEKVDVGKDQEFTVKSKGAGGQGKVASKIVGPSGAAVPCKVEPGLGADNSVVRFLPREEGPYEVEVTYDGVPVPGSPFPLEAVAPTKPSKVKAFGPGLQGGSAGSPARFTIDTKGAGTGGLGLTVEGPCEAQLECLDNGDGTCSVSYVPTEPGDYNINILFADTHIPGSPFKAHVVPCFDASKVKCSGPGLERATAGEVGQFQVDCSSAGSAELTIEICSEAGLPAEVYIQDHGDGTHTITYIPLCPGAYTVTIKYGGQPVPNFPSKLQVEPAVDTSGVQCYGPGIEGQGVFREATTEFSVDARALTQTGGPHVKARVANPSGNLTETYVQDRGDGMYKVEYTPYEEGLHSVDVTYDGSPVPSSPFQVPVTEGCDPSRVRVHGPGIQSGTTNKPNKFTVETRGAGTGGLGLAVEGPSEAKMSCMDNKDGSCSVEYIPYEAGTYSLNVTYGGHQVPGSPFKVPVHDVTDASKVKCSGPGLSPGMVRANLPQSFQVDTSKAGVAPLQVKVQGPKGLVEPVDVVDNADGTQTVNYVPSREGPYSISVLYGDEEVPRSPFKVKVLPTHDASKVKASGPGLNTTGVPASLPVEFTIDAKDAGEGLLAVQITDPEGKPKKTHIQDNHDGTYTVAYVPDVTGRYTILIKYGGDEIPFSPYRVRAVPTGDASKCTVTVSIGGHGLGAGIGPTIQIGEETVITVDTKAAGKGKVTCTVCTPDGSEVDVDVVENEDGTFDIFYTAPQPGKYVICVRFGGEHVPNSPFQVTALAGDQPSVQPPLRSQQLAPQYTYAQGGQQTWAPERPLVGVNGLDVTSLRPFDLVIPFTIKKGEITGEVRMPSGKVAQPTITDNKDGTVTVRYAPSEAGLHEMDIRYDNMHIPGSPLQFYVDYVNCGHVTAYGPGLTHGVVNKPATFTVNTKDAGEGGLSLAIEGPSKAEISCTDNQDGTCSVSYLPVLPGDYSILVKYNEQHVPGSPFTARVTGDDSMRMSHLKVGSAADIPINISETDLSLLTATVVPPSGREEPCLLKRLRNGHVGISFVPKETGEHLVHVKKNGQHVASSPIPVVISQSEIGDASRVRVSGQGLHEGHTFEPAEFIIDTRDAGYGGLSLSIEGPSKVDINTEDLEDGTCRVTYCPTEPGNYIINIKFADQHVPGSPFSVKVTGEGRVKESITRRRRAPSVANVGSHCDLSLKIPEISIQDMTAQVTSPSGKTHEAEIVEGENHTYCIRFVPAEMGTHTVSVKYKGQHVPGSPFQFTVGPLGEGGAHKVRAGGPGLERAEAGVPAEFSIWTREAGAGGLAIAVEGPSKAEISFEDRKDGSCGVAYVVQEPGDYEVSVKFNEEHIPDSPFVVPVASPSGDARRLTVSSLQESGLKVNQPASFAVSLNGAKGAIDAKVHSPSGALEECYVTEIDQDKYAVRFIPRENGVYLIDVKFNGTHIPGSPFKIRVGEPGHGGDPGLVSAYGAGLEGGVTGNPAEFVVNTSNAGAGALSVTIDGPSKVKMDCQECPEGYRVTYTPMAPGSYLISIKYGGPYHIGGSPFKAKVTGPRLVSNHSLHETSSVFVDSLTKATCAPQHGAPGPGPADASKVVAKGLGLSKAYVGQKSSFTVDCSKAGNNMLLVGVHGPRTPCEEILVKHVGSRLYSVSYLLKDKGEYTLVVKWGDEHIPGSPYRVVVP

Results are given in words; binding and its absence hold for the method and conditions named. In cells and extracts the contact can be indirect. Here binding means that the protein was enriched with, or labelled near, the bait; the list need not be complete. Sequences can lack the tags named with a protein.

On to “filamin A (FLNA) (from UniProt P21333 1-2647)”, for which the binding result is on record as “binds”.

Source of the values: paper doi:10.1101/721316.
